The results in this text go back to paper PMC12607630.

Amino acid sequences for entries named in this document (tags omitted). A change or cut given only in a name is not applied to a line headed by its entry.
UniProt P0A9A6: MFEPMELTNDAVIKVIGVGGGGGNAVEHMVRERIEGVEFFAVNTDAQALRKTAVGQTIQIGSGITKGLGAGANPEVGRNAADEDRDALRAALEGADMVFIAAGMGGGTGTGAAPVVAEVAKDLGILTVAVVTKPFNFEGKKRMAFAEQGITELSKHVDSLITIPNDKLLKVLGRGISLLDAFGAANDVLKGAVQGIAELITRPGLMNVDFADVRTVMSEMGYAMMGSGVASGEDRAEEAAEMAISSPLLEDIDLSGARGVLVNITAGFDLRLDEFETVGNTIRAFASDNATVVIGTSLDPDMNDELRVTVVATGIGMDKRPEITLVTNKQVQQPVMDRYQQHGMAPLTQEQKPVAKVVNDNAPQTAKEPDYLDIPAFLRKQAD

These are yes or no findings as the source states them, for the method shown. Binding can be weak; no strength is given. Where a sequence is shown, tags or fusion partners need not be part of it.

The target in this assay is FtsZ-T25 fusion (bacterial two-hybrid) (Escherichia coli) (UniProt P0A9A6). Description: two-hybrid; bacterial two-hybrid in strain LYA1 (BTH101, ftsA^R286W); LB plates with antibiotics, 40 µg/mL X-gal and IPTG, 30°C, about 18 hours.

B1: FtsA (bacterial two-hybrid fusion) (protein, UniProt P0ABH0 1-420)
chain: MIKATDRKLVVGLEIGTAKVAALVGEVLPDGMVNIIGVGSCPSRGMDKGGVNDLESVVKCVQRAIDQAELMADCQISSVYLALSGKHISCQNEIGMVPISEEEVTQEDVENVVHTAKSVRVRDEHRVLHVIPQEYAIDYQEGIKNPVGLSGVRMQAKVHLITCHNDMAKNIVKAVERCGLKVDQLIFAGLASSYSVLTEDERELGVCVVDIGGGTMDIAVYTGGALRHTKVIPYAGNVVTSDIAYAFGTPPSDAEAIKVRHGCALGSIVGKDESVEVPSVGGRPPRSLQRQTLAEVIEPRYTELLNLVNEEILQLQEKLRQQGVKHHLAAGIVLTGGAAQIEGLAACAQRVFHTQVRIGAPLNITGLTDYAQEPYYSTAVGLLHYGKESHLNGEAEVEKRVTASVGSWIKRLNSWLRKEF
For B1, the binding result is “binds”.

B2: ZapA (bacterial two-hybrid fusion) (protein, UniProt P0ADS2 1-109)
chain: MSAQPVDIQIFGRSLRVNCPPDQRDALNQAADDLNQRLQDLKERTRVTNTEQLVFIAALNISYELAQEKAKTRDYAASMEQRIRMLQQTIEQALLEQGRITEKTNQNFE
Take B2: the binding result was “binds”.
